Laboratory results: PubChem BioAssay AID504467 (National Center for Advancing Translational Sciences (NCATS), 2011)
Among all 330,000 compounds or so, about 7,700 (2.3%) were called active. The shares of active, inactive and inconclusive entries below differ from those in the screen. Calls come from the whole dose curve; as a rule, active = well fitted inhibition curve with a large enough effect; inconclusive = small, poorly fitted or top-dose-only effect, or effect the other way; inactive = flat fitted curve, though single readings scatter. Potencies beside an inconclusive call are fits to weak or partial responses and may not hold up.
% is set by controls: 0 for no effect and ±100 for the full control effect; potency is the fitted concentration of half-maximal effect.

Test: qHTS screen for small molecules that inhibit ELG1-dependent DNA repair in human embryonic kidney (HEK293T) cells expressing luciferase-tagged ELG1; note: nearly all actives have a fitted effect of over 55% in size
Details: HEK293T ELG1-luciferase reporter, luminescence, 16 h, DNA damage induced by 5-fluorouridine; activity change, negative = inhibition: at 46.1 µM (top of the series)
In short: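 Quantitative HTS, concentration-response format. 2,000 cells/well co-treated with 5-fluorouridine and compound, 16 hr in 5% CO2 at 37 °C; ONE-Glo luminescence read after 30 min.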
With CC(=O)Nc1ccc(NC(=O)CSc2nnc(NC(=O)c3ccco3)s2)cc1 the “activity change, negative = inhibition” value was inactive: 18.7%.
In the case of COc1cccc(NC(=O)CN(C)C(=O)CNC(=O)c2ccc3ccccc3c2)c1, the Potency is reported as inconclusive: 25.9 µM [activator, single point].
In the case of COCCNC(=S)Nc1cc2oc3ccccc3c2cc1OC, the Potency is reported as inconclusive: 29.1 µM [activator, partial curve, poor fit].
For CC(C)NC(=O)c1ccccc1NC(=O)Cc1ccc([N+](=O)[O-])cc1, the Potency was inconclusive: 25.9 µM [inhibitor, partial curve, poor fit].
In the case of c1ccc(-c2ccccc2OCCCCN2CCCCC2)cc1, the “activity change, negative = inhibition” value is reported as inactive: -21%.
With O=C(Nc1ccc2ncccc2c1)c1ccccc1Br the Potency was inconclusive: 2.91 µM [activator, partial curve].
In the case of CCOC(=O)c1ccc(S(=O)(=O)Nc2cc(S(=O)(=O)Nc3ccc(OC)cc3)ccc2O)cc1, the “activity change, negative = inhibition” value is reported as inactive: 3.34%.
For CC1CCC2(CC1)NC(=O)N(CC(=O)Nc1cccc(S(=O)(=O)N3CCCC3)c1)C2=O (stereo not drawn), the “activity change, negative = inhibition” value was inactive: 0.806%.
In the case of O=C(C1CC(c2ccccc2O)=NO1)N1CCCC1 (stereo not drawn), the Potency is reported as inconclusive: 10.3 µM [activator, single point].
With O=C(CNS(=O)(=O)c1ccccc1F)Nc1ccc(N2CCOCC2)cc1 the “activity change, negative = inhibition” value was inactive: 4.93%.
In the case of O=C(CNCCC1=CCCCC1)Nc1ccccc1N1CCCCCC1, the Potency is reported as inconclusive: 25.9 µM [inhibitor, partial curve, poor fit].
With Cc1ccc(S(=O)(=O)N2CCN(C(=O)c3ccc(S(=O)(=O)N4CCCC4)cc3)CC2)cc1 the Potency was inconclusive: 5.01 µM [inhibitor, single point].
With CCc1noc(C)c1C(=O)Oc1ccc(N(C)S(=O)(=O)c2ccccc2)cc1 the Potency was inconclusive: 0.231 µM [inhibitor, single point].
In the case of COc1ccc(C2OC(=O)CC2C(=O)NCc2ccc(F)cc2)cc1OC (stereo not drawn), the “activity change, negative = inhibition” value is reported as inactive: 11.3%.
With COc1ccccc1NC(=O)CSc1nnc(Cc2cccn2C)n1-c1ccc(F)cc1 the Potency was inconclusive: 0.0731 µM [activator, full curve, poor fit].
For Cc1ccc(C(=O)/C=C\C(=O)c2ccc(C)cc2)cc1, the Potency was inconclusive: 32.6 µM [inhibitor, single point].
For C=CC[C@@H](CC(=O)N[C@@H](CO)Cc1ccccc1)C(=O)NC[C@@H](OC(=O)[C@@H](CC=C)Cc1ccc(F)cc1)c1ccccc1, the “activity change, negative = inhibition” value was inactive: 3.88%.
In the case of CC(/C=N/N1CCN(c2ccccn2)CC1)=C\c1ccccc1, the Potency is reported as inconclusive: 16.4 µM [activator, partial curve].
In the case of O=C(Nc1ccc(Cl)cc1)c1ccsn1, the Potency is reported as inconclusive: 20.6 µM [activator, partial curve].
In the case of COc1ccc(-c2cccc(-c3cc(=O)oc4cc(OC)c(OC)c(OC)c34)c2)cc1, the Potency is reported as inconclusive: 20.6 µM [inhibitor, partial curve].
In the case of CCCCOC(=O)CSc1nc(N)c(C#N)c(-c2ccc(OCC)cc2)c1C#N, the Potency is reported as inconclusive: 29.1 µM [activator, partial curve, poor fit].
For COc1ccc(C2=Nn3c(nnc3-c3ccccc3F)SC2)cc1OCC1CC1, the Potency was inconclusive: 11.6 µM [inhibitor, partial curve].
For Cc1cc(C)nc(SC2c3cccc4cccc(c34)C2NS(=O)(=O)c2ccccc2)n1 (stereo not drawn), the Potency was inconclusive: 29.1 µM [inhibitor, single point].
In the case of O=C(CCSc1nc(-c2ccco2)cc(C(F)(F)F)n1)Nc1ccc2c(c1)OCO2, the Potency is reported as inconclusive: 29.1 µM [inhibitor, single point].
In the case of COc1ccc(C(=O)NNC(=O)c2ccccn2)cc1, the Potency is reported as inconclusive: 0.231 µM [activator, full curve].
For c1ccc2c(c1)oc1c(Nc3ccc4c(c3)OCO4)ncnc12, the Potency was inconclusive: 5.8 µM [activator, full curve].
In the case of CCN(CC)c1ccc(NS(=O)(=O)c2ccc(OC)cc2)cc1, the Potency is reported as inconclusive: 20.6 µM [inhibitor, partial curve, poor fit].
In the case of CN(C)c1cc[n+](CC(=O)Nc2cc(C(F)(F)F)ccc2Cl)cc1, the “activity change, negative = inhibition” value is reported as inactive: -8.49%.
For COc1cc(/C=N/n2cnc3scc(-c4cccs4)c3c2=O)cc(OC)c1OC, the Potency was inconclusive: 9.2 µM [inhibitor, partial curve].
For CCOc1ccc(NC(=O)c2ccc(CNc3c(NC4CCCCC4)c(=O)c3=O)cc2)cc1, the Potency was inconclusive: 29.1 µM [activator, partial curve, poor fit].
For O=C(C[n+]1ccc2ccccc2c1)c1ccc(NC(=O)c2ccccc2)cc1, the Potency was inconclusive: 20.6 µM [inhibitor, partial curve, poor fit].
In the case of Clc1cccc(CN2CCSCC2)c1Cl, the “activity change, negative = inhibition” value is reported as inactive: -13.9%.
With COc1ccc(CNC(=O)C/C(C)=N/NC(=O)c2cc(OC)cc(OC)c2)cc1 the “activity change, negative = inhibition” value was inactive: -5.46%.
For COc1cc(C2C3=C(Nc4nc(N)[nH]c(=O)c42)c2ccccc2C3=O)ccc1O (stereo not drawn), the “activity change, negative = inhibition” value was inactive: -6.1%.
In the case of CCCN1C(=O)C(=O)c2cc(Cl)ccc21, the Potency is reported as inconclusive: 23.1 µM [activator, partial curve].
In the case of O=c1cc(-c2c(F)c(F)c(F)c(F)c2F)oc2ccccc12, the “activity change, negative = inhibition” value is reported as inactive: -10.5%.
In the case of CCOCCCN(C)C1CCN(C(=O)c2oc3ccccc3c2NC(=O)COc2ccc(F)cc2)CC1, the Potency is reported as inconclusive: 23.1 µM [inhibitor, single point].
In the case of O=C(NC1CCC(O)CC1)c1cc(-c2ccc(Cl)cc2)nc2ccccc12 (stereo not drawn), the “activity change, negative = inhibition” value is reported as inactive: 8.12%.
In the case of CC(=O)NC(=S)Nc1ccccc1C(=O)Nc1ccccc1, the Potency is reported as inconclusive: 13 µM [activator, partial curve].
In the case of Fc1ccc(Oc2cnc3ccccc3n2)cc1, the Potency is reported as inconclusive: 20.6 µM [inhibitor, single point].
In the case of CCc1cccc(C)c1NC(=O)COC(=O)C1CCN(S(=O)(=O)c2ccccc2)CC1, the “activity change, negative = inhibition” value is reported as inactive: 0%.
For CC/C(=N/NC(=O)c1ccccc1)c1ccc(OCCN2CCOCC2)cc1, the Potency was inconclusive: 18.4 µM [activator, partial curve].
In the case of Cc1ccc(NC2CCCN(C(=O)c3ccc4[nH]ccc4c3)C2)cc1C (stereo not drawn), the Potency is reported as inconclusive: 29.1 µM [inhibitor, single point].
For COc1ccccc1N=Nc1ccc(O)c2ncccc12, the Potency was inconclusive: 29.1 µM [activator, single point].
In the case of CCCCOC(=O)c1ccc(S(N)(=O)=O)o1, the Potency is reported as inconclusive: 29.1 µM [activator, single point].
In the case of CCN1C(=O)[C@@H]2[C@@H](c3ccc(-c4ccc(Cl)c(Cl)c4)cc3)N3CCC[C@@]3(C(=O)OC)[C@@H]2C1=O, the Potency is reported as active: 2.31 µM.
In the case of O=C(Nc1nccs1)c1ccc(Cl)s1, the Potency is reported as inconclusive: 14.6 µM [activator, partial curve].
With CCOC(=O)Cc1csc(NC(=O)Nc2ccc(OC(F)(F)F)cc2)n1 the Potency was active: 2.06 µM.
In the case of CC(C)(C)NC(=O)C(c1ccc(-c2ccccc2)cc1)N(C[C@H]1CC[C@@H]([C@@H]2CC[C@H](CO)O2)O1)C(=O)c1ccc(-c2ccccc2)cc1 (stereo partly drawn), the Potency is reported as active: 23.1 µM.
For COc1ccc(/C=C/C(=O)c2ccccc2)c(OC)c1, the Potency was inconclusive: 16.4 µM [activator, partial curve].
For CCOC(=O)Cc1nnc(NC(=O)COc2ccc(C)cc2)s1, the Potency was inconclusive: 15.8 µM [activator, single point].
In the case of CCc1nn(-c2ccccc2)c2c1-c1cc(OC)c(OC)cc1C1(N2)C(=O)Nc2ccccc21 (stereo not drawn), the Potency is reported as active: 20.6 µM.
In the case of CCc1cc(C(=O)O)c(NC(=O)/C=C/c2ccc(OC)cc2)s1, the Potency is reported as inconclusive: 2.91 µM [activator, partial curve].
In the case of CCCCOc1ccc(Cc2c(O)nc(SC)[nH]c2=O)cc1, the Potency is reported as inconclusive: 4.47 µM [inhibitor, partial curve, poor fit].
With C=CCNC(=O)COC(=O)C1CCN(S(=O)(=O)c2ccc3c(c2)OCCO3)CC1 the Potency was inconclusive: 18.3 µM [activator, single point].
With COc1cccc(CNCc2ccc(SC)cc2)c1OC the “activity change, negative = inhibition” value was inactive: 6.15%.
With CCOc1ccc(-n2ccnc(SCC(=O)Nc3cccc(OC)c3)c2=O)cc1 the Potency was inconclusive: 29.1 µM [inhibitor, single point].
In the case of N#CCC(=O)N/N=C\c1cc(Br)ccc1OC/C=C/c1ccccc1, the Potency is reported as inconclusive: 16.4 µM [activator, partial curve].
With CCC1CCCCN1C(=O)c1ccc([N+](=O)[O-])o1 (stereo not drawn) the “activity change, negative = inhibition” value was inactive: 4.88%.
In the case of Cn1c(-c2ccc(F)c(F)c2)cc2onc(-c3ccccc3)c2c1=O, the Potency is reported as inconclusive: 2.91 µM [activator, partial curve, poor fit].
In the case of Cc1nnc(SCC(=O)N2CCC(C(=O)Nc3nccs3)CC2)n1Cc1ccccc1, the Potency is reported as inconclusive: 13 µM [inhibitor, partial curve, poor fit].
With Cc1cc(C)cc(NC(=S)N(CCN2CCCCC2)Cc2ccco2)c1 the Potency was inconclusive: 23.1 µM [inhibitor, single point].
In the case of CC(OC(=O)Cc1c[nH]c2ccccc12)C(=O)Nc1ccc(S(N)(=O)=O)cc1 (stereo not drawn), the “activity change, negative = inhibition” value is reported as inactive: -21.1%.
In the case of CC(C)[C@H](NC(=O)Nc1ccccc1F)C(=O)O, the Potency is reported as inconclusive: 29.1 µM [activator, partial curve, poor fit].
In the case of CCCCCCNC(=O)CC(c1ccccc1)c1cc(Br)ccc1O (stereo not drawn), the Potency is reported as inconclusive: 18.4 µM [inhibitor, single point].
For O=C(CCc1nnc(CCCc2ccccc2)o1)NCCc1ccco1, the Potency was inconclusive: 23.1 µM [activator, single point].
With CC(=O)N1c2ccc(S(=O)(=O)N(C)CC(=O)NC(C)c3ccccc3)cc2CC1C (stereo not drawn) the “activity change, negative = inhibition” value was inactive: 2.39%.
With COC1CCCN(C(=O)c2ccc(OC3CCN(S(=O)(=O)N(C)C)CC3)cc2)C1 (stereo not drawn) the Potency was inconclusive: 29.1 µM [inhibitor, single point].
